Some of the results follow.
Experiments:
Experiment in all cases: log2 fold change, soluble protein after heating vs DMSO (PISA); higher = thermal stabilisation; K562 lysate, 10 uM; active = over 0.2 and 3.5 SD of the protein, either way, in both replicates (recomputed)
[1] = compound: CS(=O)(=O)CCNCc1ccc(-c2ccc3ncnc(Nc4ccc(OCc5cccc(F)c5)c(Cl)c4)c3c2)o1 [lapatinib]
Procedure, shortened: (§1)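 To prepare the extract, K562 pellets were dounce-homogenised in PBS pH 7.4 with 1 mM MgCl2, giving crude material at 1 mg/mL protein. This was treated with 10 μM compound for 30 min, then heated in aliquots for 3 min over 48°C-58°C before pooling and addition of NP-40 to 0.5% at 4°C. Centrifugation at 21,000xg for 90 min left soluble protein in the supernatant, which TMTpro 16plex LC-MS/MS quantified with equalised channel sums. Results are log-two fold changes in thermal stability compared with solvent controls, from duplicates.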

By UniProt entry, the sequences of proteins in these tests, tags left out. Where a name states a change or a piece, a line headed by the entry shows the natural chain unless it says otherwise.
UniProt O60841: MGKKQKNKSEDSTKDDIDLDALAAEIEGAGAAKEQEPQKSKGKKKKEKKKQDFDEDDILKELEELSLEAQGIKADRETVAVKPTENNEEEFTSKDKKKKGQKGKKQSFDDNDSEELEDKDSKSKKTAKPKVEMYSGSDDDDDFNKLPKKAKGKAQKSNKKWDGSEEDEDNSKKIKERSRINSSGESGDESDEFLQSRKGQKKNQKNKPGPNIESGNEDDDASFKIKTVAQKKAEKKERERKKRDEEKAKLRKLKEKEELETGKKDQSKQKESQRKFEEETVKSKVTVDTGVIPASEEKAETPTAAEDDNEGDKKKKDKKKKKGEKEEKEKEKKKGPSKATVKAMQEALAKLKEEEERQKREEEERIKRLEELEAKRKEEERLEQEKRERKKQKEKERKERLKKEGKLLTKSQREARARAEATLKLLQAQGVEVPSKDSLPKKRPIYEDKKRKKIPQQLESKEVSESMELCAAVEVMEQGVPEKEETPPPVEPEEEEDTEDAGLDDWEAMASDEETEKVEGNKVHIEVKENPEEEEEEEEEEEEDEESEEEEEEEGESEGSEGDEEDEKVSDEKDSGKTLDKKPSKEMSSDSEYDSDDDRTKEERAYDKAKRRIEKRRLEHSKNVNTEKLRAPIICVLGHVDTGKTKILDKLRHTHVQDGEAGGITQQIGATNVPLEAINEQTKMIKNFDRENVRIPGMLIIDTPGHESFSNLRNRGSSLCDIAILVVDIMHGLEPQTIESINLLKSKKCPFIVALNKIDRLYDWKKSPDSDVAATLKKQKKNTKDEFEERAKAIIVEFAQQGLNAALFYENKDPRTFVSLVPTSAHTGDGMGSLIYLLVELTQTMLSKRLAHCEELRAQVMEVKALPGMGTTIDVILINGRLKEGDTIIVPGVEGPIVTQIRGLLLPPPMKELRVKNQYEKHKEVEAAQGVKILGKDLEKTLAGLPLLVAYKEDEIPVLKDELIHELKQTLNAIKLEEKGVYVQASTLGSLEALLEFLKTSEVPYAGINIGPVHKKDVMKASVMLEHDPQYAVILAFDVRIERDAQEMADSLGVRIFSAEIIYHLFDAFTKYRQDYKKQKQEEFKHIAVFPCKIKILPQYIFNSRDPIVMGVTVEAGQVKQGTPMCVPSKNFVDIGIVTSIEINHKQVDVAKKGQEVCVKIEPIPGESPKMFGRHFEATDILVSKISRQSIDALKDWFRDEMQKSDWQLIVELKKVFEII
UniProt Q6IA86: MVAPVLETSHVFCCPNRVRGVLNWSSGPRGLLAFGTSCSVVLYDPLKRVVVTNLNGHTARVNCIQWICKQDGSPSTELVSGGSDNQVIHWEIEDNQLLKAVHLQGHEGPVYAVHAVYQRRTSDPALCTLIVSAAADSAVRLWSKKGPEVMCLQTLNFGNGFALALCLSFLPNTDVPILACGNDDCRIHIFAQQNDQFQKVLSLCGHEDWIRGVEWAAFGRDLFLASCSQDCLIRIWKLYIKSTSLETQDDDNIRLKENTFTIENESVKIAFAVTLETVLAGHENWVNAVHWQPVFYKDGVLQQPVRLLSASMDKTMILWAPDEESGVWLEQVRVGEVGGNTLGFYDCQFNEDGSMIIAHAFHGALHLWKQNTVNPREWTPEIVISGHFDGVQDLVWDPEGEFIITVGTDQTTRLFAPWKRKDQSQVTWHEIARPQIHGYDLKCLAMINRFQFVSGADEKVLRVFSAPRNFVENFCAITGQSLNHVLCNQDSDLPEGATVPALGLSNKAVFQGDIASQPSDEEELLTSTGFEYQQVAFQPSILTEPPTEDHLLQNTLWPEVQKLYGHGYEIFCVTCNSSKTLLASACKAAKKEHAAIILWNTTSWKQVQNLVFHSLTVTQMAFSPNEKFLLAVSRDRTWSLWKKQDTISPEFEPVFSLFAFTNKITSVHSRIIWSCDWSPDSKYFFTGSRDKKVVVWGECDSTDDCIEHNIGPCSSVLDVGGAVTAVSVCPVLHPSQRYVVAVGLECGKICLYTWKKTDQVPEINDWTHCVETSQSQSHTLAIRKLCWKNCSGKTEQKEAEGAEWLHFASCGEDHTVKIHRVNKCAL
UniProt O43402: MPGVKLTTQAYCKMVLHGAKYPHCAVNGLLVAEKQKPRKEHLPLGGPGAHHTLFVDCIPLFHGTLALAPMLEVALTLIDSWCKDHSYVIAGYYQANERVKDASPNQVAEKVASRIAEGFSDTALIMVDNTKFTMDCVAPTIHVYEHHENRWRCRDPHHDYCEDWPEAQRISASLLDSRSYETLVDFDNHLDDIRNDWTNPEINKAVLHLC
UniProt Q6P179: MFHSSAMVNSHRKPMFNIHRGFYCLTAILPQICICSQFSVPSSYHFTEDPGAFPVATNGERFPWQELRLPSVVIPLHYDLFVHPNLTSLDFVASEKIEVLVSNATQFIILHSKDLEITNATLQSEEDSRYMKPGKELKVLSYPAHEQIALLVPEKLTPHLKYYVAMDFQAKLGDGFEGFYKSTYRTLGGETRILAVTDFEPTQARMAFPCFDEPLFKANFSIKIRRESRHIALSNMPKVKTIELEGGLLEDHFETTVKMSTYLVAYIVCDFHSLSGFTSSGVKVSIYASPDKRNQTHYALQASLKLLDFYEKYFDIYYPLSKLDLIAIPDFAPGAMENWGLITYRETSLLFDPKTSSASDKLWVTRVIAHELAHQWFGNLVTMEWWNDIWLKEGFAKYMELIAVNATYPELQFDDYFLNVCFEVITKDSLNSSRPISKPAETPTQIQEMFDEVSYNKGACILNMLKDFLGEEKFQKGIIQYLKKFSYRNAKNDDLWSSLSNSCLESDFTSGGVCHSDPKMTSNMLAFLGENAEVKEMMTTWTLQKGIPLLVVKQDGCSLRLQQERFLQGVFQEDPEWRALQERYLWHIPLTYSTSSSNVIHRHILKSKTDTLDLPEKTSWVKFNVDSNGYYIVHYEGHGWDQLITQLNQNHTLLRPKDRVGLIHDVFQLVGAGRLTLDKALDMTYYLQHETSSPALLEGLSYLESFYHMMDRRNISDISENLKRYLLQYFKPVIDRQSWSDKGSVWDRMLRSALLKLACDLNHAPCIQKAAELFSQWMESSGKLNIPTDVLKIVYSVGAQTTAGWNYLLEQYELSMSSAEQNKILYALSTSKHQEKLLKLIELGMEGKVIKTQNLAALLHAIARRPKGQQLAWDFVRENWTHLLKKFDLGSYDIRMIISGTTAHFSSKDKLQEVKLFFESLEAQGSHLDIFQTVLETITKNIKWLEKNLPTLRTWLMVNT
UniProt Q03468, whole entry, looked up: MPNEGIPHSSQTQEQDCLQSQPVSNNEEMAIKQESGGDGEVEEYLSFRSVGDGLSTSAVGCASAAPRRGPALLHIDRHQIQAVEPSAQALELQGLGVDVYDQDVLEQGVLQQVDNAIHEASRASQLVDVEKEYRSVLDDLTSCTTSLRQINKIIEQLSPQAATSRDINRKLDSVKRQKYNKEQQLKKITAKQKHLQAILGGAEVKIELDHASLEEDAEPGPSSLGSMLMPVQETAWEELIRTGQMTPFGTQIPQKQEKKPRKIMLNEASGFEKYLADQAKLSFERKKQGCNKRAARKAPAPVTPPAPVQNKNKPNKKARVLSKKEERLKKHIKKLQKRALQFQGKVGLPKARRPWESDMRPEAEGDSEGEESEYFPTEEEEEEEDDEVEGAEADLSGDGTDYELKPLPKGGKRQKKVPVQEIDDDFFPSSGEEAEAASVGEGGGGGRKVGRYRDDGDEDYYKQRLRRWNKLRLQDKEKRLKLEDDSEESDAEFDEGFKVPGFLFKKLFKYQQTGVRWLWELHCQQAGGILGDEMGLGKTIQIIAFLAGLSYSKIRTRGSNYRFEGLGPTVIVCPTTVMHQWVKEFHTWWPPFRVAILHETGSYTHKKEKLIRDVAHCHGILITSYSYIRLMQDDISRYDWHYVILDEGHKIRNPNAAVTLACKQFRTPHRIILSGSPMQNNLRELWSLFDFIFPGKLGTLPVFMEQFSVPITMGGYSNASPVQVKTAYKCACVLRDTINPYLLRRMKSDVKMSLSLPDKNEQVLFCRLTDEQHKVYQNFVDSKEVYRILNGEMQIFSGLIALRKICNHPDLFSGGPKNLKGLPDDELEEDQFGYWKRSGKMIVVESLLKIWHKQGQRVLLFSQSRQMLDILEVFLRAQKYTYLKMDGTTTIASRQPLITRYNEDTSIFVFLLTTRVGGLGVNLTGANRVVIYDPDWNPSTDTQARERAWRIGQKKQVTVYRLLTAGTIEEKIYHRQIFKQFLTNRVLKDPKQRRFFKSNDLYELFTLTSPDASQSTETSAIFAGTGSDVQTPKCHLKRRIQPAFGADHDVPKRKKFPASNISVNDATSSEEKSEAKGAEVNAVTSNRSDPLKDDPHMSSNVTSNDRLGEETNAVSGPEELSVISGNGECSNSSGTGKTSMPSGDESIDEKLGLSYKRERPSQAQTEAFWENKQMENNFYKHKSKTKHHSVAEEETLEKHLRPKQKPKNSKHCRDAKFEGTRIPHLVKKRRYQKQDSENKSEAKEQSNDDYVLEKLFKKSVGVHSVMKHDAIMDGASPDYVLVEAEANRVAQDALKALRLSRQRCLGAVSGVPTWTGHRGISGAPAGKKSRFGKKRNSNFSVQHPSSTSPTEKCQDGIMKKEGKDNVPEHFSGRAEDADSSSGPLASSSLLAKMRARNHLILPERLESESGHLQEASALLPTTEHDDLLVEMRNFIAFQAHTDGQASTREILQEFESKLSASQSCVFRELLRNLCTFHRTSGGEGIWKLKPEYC
UniProt P54760: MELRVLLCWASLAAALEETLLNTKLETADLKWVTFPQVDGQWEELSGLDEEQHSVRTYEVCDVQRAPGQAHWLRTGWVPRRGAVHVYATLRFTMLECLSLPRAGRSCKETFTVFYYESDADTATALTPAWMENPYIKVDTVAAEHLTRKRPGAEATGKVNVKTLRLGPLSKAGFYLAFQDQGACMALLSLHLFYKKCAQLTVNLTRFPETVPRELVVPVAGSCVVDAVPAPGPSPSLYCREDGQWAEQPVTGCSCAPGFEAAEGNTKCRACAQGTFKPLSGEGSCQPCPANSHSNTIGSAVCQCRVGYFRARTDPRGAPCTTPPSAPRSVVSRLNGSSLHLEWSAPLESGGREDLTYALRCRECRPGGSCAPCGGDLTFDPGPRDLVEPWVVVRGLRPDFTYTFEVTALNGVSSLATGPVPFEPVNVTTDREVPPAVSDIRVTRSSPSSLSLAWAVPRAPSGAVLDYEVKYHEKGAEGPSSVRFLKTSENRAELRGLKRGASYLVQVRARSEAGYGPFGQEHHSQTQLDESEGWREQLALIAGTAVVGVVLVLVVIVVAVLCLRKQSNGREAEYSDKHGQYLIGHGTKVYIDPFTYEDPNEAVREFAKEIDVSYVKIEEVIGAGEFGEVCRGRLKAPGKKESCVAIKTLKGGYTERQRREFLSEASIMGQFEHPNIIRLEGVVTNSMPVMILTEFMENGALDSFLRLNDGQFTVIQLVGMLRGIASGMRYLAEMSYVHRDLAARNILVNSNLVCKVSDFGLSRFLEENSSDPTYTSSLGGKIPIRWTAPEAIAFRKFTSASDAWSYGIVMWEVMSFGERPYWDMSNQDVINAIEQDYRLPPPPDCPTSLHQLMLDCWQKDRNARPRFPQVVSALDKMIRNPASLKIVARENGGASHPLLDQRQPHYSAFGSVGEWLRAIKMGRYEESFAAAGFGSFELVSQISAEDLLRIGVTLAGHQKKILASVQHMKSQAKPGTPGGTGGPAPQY
UniProt Q7L775: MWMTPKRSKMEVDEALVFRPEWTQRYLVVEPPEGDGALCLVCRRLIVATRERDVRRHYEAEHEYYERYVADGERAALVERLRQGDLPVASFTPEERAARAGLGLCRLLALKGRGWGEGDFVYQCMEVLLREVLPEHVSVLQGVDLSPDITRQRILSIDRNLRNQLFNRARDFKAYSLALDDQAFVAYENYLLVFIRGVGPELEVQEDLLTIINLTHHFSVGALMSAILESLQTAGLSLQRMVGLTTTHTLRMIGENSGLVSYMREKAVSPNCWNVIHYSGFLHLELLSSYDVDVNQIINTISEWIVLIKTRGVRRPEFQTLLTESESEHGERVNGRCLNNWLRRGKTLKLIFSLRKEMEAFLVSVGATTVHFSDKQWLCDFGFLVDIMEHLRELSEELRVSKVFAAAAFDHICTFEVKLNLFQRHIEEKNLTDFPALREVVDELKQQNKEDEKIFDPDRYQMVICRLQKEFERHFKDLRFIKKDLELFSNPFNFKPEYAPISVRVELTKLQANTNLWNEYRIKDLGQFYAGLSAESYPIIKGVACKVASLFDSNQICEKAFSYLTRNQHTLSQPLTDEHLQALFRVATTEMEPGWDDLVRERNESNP

[2] = compound: CS(=O)(=O)N1CCN(Cc2cc3nc(-c4cccc5[nH]ncc45)nc(N4CCOCC4)c3s2)CC1 [pictilisib]
Procedure, shortened: as §1

[3] = compound: C[C@@H](Oc1cc(-c2cnn(C3CCNCC3)c2)cnc1N)c1c(Cl)ccc(F)c1Cl [crizotinib]
Procedure, shortened: as §1

[4] = compound: C[C@H](C1=CC=C(C=C1)C(=O)NC2=C3C=CNC3=NC=C2)N
Procedure, shortened: as §1

[5] = compound: C[C@H](Nc1ncnc2nc[nH]c12)c1cc2cccc(Cl)c2c(=O)n1-c1ccccc1 [duvelisib]
Procedure, shortened: as §1

[6] = compound: Cc1cc(Nc2cc(CN3CCOCC3)c3nc(C)c(Cc4ccc(Cl)cc4F)n3n2)n[nH]1 [gandotinib]
Procedure, shortened: as §1

[7] = compound: Cc1cc(Nc2cc(N3CCN(C)CC3)nc(Sc3ccc(NC(=O)C4CC4)cc3)n2)n[nH]1 [tozasertib]
Procedure, shortened: as §1

[8] = compound: Cc1ccc(-n2nc(C(C)(C)C)cc2NC(=O)Nc2ccc(OCCN3CCOCC3)c3ccccc23)cc1 [doramapimod]
Procedure, shortened: as §1

[9] = compound: Cc1ccc(NC(=O)c2ccc(CN3CC[C@H](N(C)C)C3)c(C(F)(F)F)c2)cc1Nc1nccc(-c2cncnc2)n1 [bafetinib]
Procedure, shortened: as §1

[10] = compound: Cc1cccc(CC(=O)N2CCc3c2ccc(-c2cn(C)c4ncnc(N)c24)c3F)n1
Procedure, shortened: as §1

[11] = compound: Cc1cn(-c2cc(NC(=O)c3ccc(C)c(Nc4nccc(-c5cccnc5)n4)c3)cc(C(F)(F)F)c2)cn1 [nilotinib]
Procedure, shortened: as §1

[12] = compound: Cc1nc(Nc2n[nH]c3c2CN(C(=O)N[C@H](CN(C)C)c2ccccc2)C3(C)C)c2sccc2n1
Procedure, shortened: as §1

[13] = compound: Cc1nc(Nc2ncc(C(=O)Nc3c(C)cccc3Cl)s2)cc(N2CCN(CCO)CC2)n1 [dasatinib]
Procedure, shortened: as §1

[14] = compound: Cc1ncc(-c2ccnc(Nc3ccc(S(C)(=O)=O)cc3)n2)n1C(C)C
Procedure, shortened: as §1

[15] = compound: Cn1cc(-c2ccc3c(c2)CCN3C(=O)Cc2cccc(C(F)(F)F)c2)c2c(N)ncnc21
Procedure, shortened: as §1

[16] = compound: Cn1cc(CNCC2CCN(c3ncc(C(=O)NO)cn3)CC2)c2ccccc21 [quisinostat]
Procedure, shortened: as §1

[17] = compound: Cn1cncc1[C@@](N)(c1ccc(Cl)cc1)c1ccc2c(c1)c(-c1cccc(Cl)c1)cc(=O)n2C [tipifarnib]
Procedure, shortened: as §1

[18] = compound: NC(=O)Nc1cc(-c2cccc(F)c2)sc1C(=O)N[C@H]1CCCNC1
Procedure, shortened: as §1

[19] = compound: NC(=O)c1cnc(N[C@@H]2CCCC[C@@H]2N)nc1Nc1cccc(-n2nccn2)c1
Procedure, shortened: as §1

[20] = compound: NC1(c2ccc(-c3nc4ccn5c(=O)[nH]nc5c4cc3-c3ccccc3)cc2)CCC1
Procedure, shortened: as §1

Measured: log2 fold change

EIF5B (UniProt O60841)
inactive: [1] -0.011 | [2] -0.013 | [3] 0.015 | [4] -0.007 | [5] -0.003 | [6] -0.007 | [7] 0 | [8] -0.028 | [9] 0.068 | [10] 0.007 | [11] -0.006 | [12] 0 | [13] 0.018 | [14] 0 | [15] -0.003 | [16] 0.049 | [17] 0.003 | [18] -0.007 | [19] -0.012 | [20] -0.012

ELP2 isoform 6 (UniProt Q6IA86)
inactive: [1] -0.042 | [2] -0.009 | [3] 0 | [4] -0.074 | [5] 0 | [6] 0.004 | [7] 0.015 | [8] 0.032 | [9] -0.007 | [10] 0.019 | [11] -0.005 | [12] 0.011 | [13] -0.026 | [14] -0.014 | [15] 0.017 | [16] -0.032 | [17] -0.017 | [18] 0.001 | [19] -0.007 | [20] -0.015

EMC8 (UniProt O43402)
inactive: [1] 0.009 | [2] -0.088 | [3] 0.012 | [4] -0.033 | [5] 0.011 | [6] -0.094 | [7] 0.021 | [8] -0.049 | [9] 0.006 | [10] 0.012 | [11] 0 | [12] 0.004 | [13] 0.063 | [14] -0.034 | [15] -0.05 | [16] 0.03 | [17] -0.013 | [18] -0.024 | [19] -0.003 | [20] 0.053

ERAP2 (UniProt Q6P179)
inactive: [1] -0.084 | [2] -0.125 | [3] -0.15 | [7] 0.038 | [8] -0.031 | [9] -0.314 | [16] -0.244 | [18] -0.004 | [19] 0.051 | [20] -0.116

ERCC6 (UniProt Q03468)
inactive: [1] 0.004 | [2] -0.107 | [4] 0.091 | [5] -0.392 | [6] 0.009 | [7] 0.124 | [9] 0.029 | [10] -0.028 | [11] -0.064 | [12] 0.088 | [13] 0.333 | [14] -0.055 | [15] -0.047 | [17] -0.042 | [19] -0.007 | [20] 0.039

EIF3B (UniProt C9JQN7)
inactive: [1] -0.064 | [2] -0.086 | [3] -0.073 | [4] -0.015 | [6] 0.159 | [8] -0.037 | [9] 0.002 | [10] 0.149 | [11] 0.006 | [12] -0.059 | [14] 0.086 | [16] -0.098 | [17] 0.015 | [18] -0.053 | [19] -0.021 | [20] 0

EPHB4 (UniProt P54760)
inactive: [1] 0.023 | [2] -0.106 | [3] 0.076 | [4] -0.007 | [5] 0.01 | [6] 0.058 | [7] 0 | [8] 0.247 | [9] 0.071 | [10] 0.007 | [11] 0.163 | [12] 0.021 | [14] -0.08 | [15] 0.123 | [16] -0.135 | [17] -0.203 | [18] 0.301 | [19] 0.092 | [20] -0.034

EPM2AIP1 (UniProt Q7L775)
inactive: [1] -0.031 | [2] -0.009 | [3] 0.025 | [4] 0.004 | [5] 0.013 | [6] -0.088 | [7] 0.038 | [8] -0.001 | [9] 0.082 | [10] -0.002 | [11] 0.035 | [12] -0.011 | [13] -0.011 | [14] -0.04 | [15] 0.029 | [16] 0.012 | [17] -0.028 | [18] 0.001 | [19] 0.017 | [20] -0.008
